This data set can be described thus: Solubility of the CBD drug substance in water. The data set is classed as physicochemical. The source says:
Sesame oil was selected as an excipient to solubilize the drug substance. A sweetener and fruit flavoring are required to improve palatability of the sesame oil solution. Ethanol was required to solubilize the sweetener and the flavoring. The composition can be substantially equivalent, by which is meant that the function ingredients can vary from the qualitative composition specified in Table 6 by an amount up to 10%.

As for `C=C(C)[C@@H]1CCC(C)=C[C@H]1c1c(O)cc(CCCCC)cc1O` [CBD, Cannabidiol], the Solubility in water entry was “insoluble in water”.

These data come from patent US12102619B2 (Jazz Pharmaceuticals Research UK Limited, priority 2020, dated 2024).
